Consider 30 sequences from PubChem BioAssay AID1508600 (Functional Genomics Laboratory (NCATS/FGL), 2020).

About 3,700 (7%) of roughly 53,000 sequences were called active.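 How the source made its calls: active means gene knockdowns whose robust z-score for IL-1 alpha signal is at least 2 or at most -2, so actives lie on both sides; inactive means the rest.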 This is one part of the list.

This assay can be described thus: Components of the Cytosolic LPS Sensing Pathway: Gene Identification via Genome-wide siRNA Screen.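 Further: robust z of the log signal after scaling to non-targeting control siRNA wells of the plate.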 The conditions noted are these: RAW264.7 macrophages, IL-1a HTRF, actives lie on both sides, screened at 100 nM (by protocol), cells primed 5 h with Pam3CSK4 first. Put shortly: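 Supernatant IL-1a by HTRF from RAW264.7 cells primed with Pam3CSK4 (5 hours) and transfected with LipidA (24 hour) after 48h siRNA knockdown at 100 nM; cell viability checked with CellTiter-Glo.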
Regarding CCAAUUACUUGAAUUUAGCTT against Gata5, the z-score is inactive: 0.13. The same measure for GGACAAUGCAGCCUACUACTT against Gnaz: inactive: -0.31.

For GGAGAUUGACUUCAAGGAGTT against S100a5, the z-score was inactive: -0.307. Regarding CCUUCUACUGGCAACCUAUTT against Zfp110, the z-score was inactive: 0.25.

CCCACAUUGCUUACCUUUCTT against Zfp523: the z-score is inactive: -0.762. The same measure for CGAAAAUCUUCUGGCUCACTT against Llgl2: inactive: -0.922; for GGUCCUACCUUGAAGCUCCTT against Ado: inactive: 0.816. Take GGACCACCUGAAGAACCACTT against Plagl1: the z-score is inactive: 1.65. Regarding GCUUGUGACUUAGAUUCUUTT against Rab8b, the z-score is inactive: 1.3. Regarding CCCAGGACAUCGUCACAGATT against Prkx, the z-score is inactive: -0.555.

As to GGGCUUUCAAUGAAUUACGTT against Unk, the z-score was inactive: -0.615. With GGACUACGCAGUCUCUACATT against Ddah1, the z-score is inactive: 1.77. As to GGACACCAAAAAUGUAAACTT against Cfap97, the z-score was inactive: -1.92. Take CCUAAACUCACUCUUGUGUTT against Chrna6: the z-score is inactive: -0.000677. Take GGGUCCUAAGGGAUUUAUUTT against Klf16: the z-score was inactive: -0.49. In the case of GGAAGAGGUGCUACCUCUATT against Utp3, the z-score was inactive: -0.349. For GCUCAUUGCACUUGCCAAGTT against Tcea2, the z-score is inactive: -0.0377. Take GCAAGAAAUGGACCGGUAGTT against Timm17a: the z-score is inactive: -0.882. As for GGACCGAGCCAGAUUCUUCTT against Gas2l1, the z-score was inactive: 0.178. To GGAUUUCAGCUUCCAUUUUTT against Eif2b2 belongs inactive: -0.0135; to GGACCACCUUUUGGACAAATT against Vmn1r198, inactive: 0.93; to GGAGGAAGAAAACAUCUCATT against Msh3, inactive: -0.548.

In the case of GGAGGCUGUUGUGGAUCUUTT against Acin1, the z-score was inactive: 1.03. Turning to CGGUGGCAAAAUGAGAAGUTT against Cd79a, the z-score was inactive: -0.142. As to GCAACGAAGACAAAUUAUUTT against Mid1, the z-score was inactive: -0.402. To GCUAUUUCAUUGGUUGGCUTT against Odf4 belongs inactive: -0.304.

GGGAAUGGCUAAUGUUUAUTT against Stk38l: the z-score was active: 2.32. For GGAUAGCAGCUGAGUUUUATT against Asb5, the z-score was active: 2.57. With GGCCUCCUAUAGACGGGAUTT against Vdac3, the z-score is active: 2.49. The same measure for GGUUUCUGAACAAAGCCAGTT against Mospd1: inactive: -0.167.
